## Microarray screen: hit calls

Source: the ROBIN nucleic acid binder screens (doi:10.1002/anie.202211358).

Targets (5′ to 3′):
SAM-II: SAM-II riboswitch RNA pseudoknot, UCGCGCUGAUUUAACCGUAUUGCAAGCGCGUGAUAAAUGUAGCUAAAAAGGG. Hit rate about 1% of about 21,000 compounds.
PreQ1: PreQ1 riboswitch RNA pseudoknot, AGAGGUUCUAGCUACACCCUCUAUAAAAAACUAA. From B. subtilis. Hit rate about 0.7% of about 24,000 compounds.
TPP: TPP riboswitch RNA three-way junction, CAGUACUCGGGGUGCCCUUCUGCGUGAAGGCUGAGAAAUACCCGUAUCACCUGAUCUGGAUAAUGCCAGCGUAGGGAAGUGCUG. Hit rate about 0.7% of about 24,000 compounds.

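Compounds were printed on reactive glass slides in duplicate spots, a dye-labelled oligonucleotide was laid over them, and the fluorescence left after washing was read. The data file lists only calls. An earlier report of the laboratory on the PreQ1, TPP and SAM-II riboswitches (doi:10.1038/s41467-019-09493-3) used 1 µM RNA for 2 h and required a mean Z-score above 3 (spot signal-to-noise against the whole library), a score well above that on a control array, and duplicate spots agreeing (coefficient of variation under 100); it then also set aside compounds that hit other targets, which this list keeps. The cut-offs behind this list may differ. A missing hit is not proof of no binding, and a hit is not a measured affinity.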
Key: Y = hit, N = tested without a hit.
Compounds were drawn at random from those tested, without regard to their results.
A target missing from an entry has no call listed here.

{"compound": "O=C(O)Cc1cccc(OCCCN(Cc2cccc(C(F)(F)F)c2Cl)CC(c2ccccc2)c2ccccc2)c1", "SAM-II": "N", "PreQ1": "N", "TPP": "N"}
{"compound": "COc1cccc2c1OCCCN(Cc1ccc(CO)o1)C2", "SAM-II": "N", "PreQ1": "N", "TPP": "N"}
{"compound": "COc1ccccc1C1OC2=Nc3cc([N+](=O)[O-])ccc3NC2=C1O", "stereo": "centres undefined", "SAM-II": "N", "PreQ1": "N", "TPP": "N"}
{"compound": "CC(C)(C)c1cc(CN)[nH]n1", "SAM-II": "N", "PreQ1": "N", "TPP": "N"}
{"compound": "CCC1CN(C(=O)c2ccc3c(c2)OCO3)CCN1", "stereo": "centres undefined", "SAM-II": "N", "PreQ1": "N", "TPP": "N"}
{"compound": "CCn1c(C(=O)O)c(CNC2CCCCCC2)c2ccccc21", "PreQ1": "N", "TPP": "N"}
{"compound": "CC12CNCC(C)(CN(C(=O)CCC(=O)O)C1)C2=O", "SAM-II": "N", "PreQ1": "N", "TPP": "N"}
{"compound": "Nc1ccccc1CC(c1c[nH]c2ccccc12)c1c[nH]c2ccccc12", "SAM-II": "N", "PreQ1": "N", "TPP": "N"}
{"compound": "CCc1ccc([C@@H]2C[C@H](c3cccc(OC)c3)n3nc(N)nc3N2)cc1", "SAM-II": "N", "PreQ1": "N", "TPP": "N"}
{"compound": "CCc1cc(C(=O)N2CC[C@@H](c3ccc4ccccc4c3)[C@H](O)C2)no1", "SAM-II": "N", "PreQ1": "N", "TPP": "N"}
{"compound": "Cc1nc2cccc(C(=O)NCC(O)c3ccccc3)c2o1", "stereo": "centres undefined", "SAM-II": "N", "PreQ1": "N", "TPP": "N"}
{"compound": "COc1cccc2c(Nc3cccc(C(F)(F)F)c3)cc(C)nc12", "SAM-II": "N", "PreQ1": "N", "TPP": "N"}
{"compound": "Cn1c(=O)c2c(nc(Sc3ccc(N)cc3)n2C)n(C)c1=O", "SAM-II": "N", "PreQ1": "N", "TPP": "N"}
{"compound": "COc1cc(-c2nc(-c3cccc(N)c3)n[nH]2)cc(OC)c1OC", "SAM-II": "Y", "PreQ1": "N", "TPP": "N"}
{"compound": "COCC(O)CNC(=O)c1ccc2[nH]ccc2c1", "stereo": "centres undefined", "SAM-II": "N", "PreQ1": "N", "TPP": "N"}
{"compound": "CCOC(=O)c1sc(N(C)C)nc1N", "SAM-II": "N", "PreQ1": "N", "TPP": "N"}
{"compound": "CC(C)NC(=O)[C@@H]1C[C@H](N)CN1C(=O)C1(S(=O)(=O)c2ccccc2)CC1", "SAM-II": "N", "PreQ1": "N", "TPP": "N"}
{"compound": "Cc1cccc(C)c1Oc1ncccc1CNc1ccnc(N)n1", "SAM-II": "N", "PreQ1": "N", "TPP": "N"}
{"compound": "C=CCN1C(=O)C2(C(C#N)=C(N)OC(C)=C2C(=O)OC)c2ccccc21", "stereo": "centres undefined", "SAM-II": "N", "PreQ1": "N", "TPP": "N"}
{"compound": "CCCC(=O)Nc1cccc(NC(=O)N2CCCCC2CO)c1", "stereo": "centres undefined", "SAM-II": "N", "PreQ1": "N", "TPP": "N"}
{"compound": "COC(=O)c1ccc(C(=O)OC)c(=O)[nH]1", "SAM-II": "N", "PreQ1": "N", "TPP": "N"}
{"compound": "O=C(COc1cccc(Cl)c1)NC[C@@H]1C[C@H](F)CN1", "SAM-II": "N", "PreQ1": "N", "TPP": "N"}
{"compound": "CO/N=C1/C=C(C)C(=O)C(C)=C1C", "SAM-II": "N", "PreQ1": "N", "TPP": "N"}
{"compound": "CC1(C)CC(C)(c2ccccc2)c2cc(SC#N)ccc2N1", "stereo": "centres undefined", "SAM-II": "N", "PreQ1": "N", "TPP": "N"}
{"compound": "NC(=NCCCCCCN=C(N)N=C(N)Nc1ccc(Cl)cc1)N=C(N)Nc1ccc(Cl)cc1", "SAM-II": "Y", "PreQ1": "N", "TPP": "Y"}
{"compound": "O=C1CCC2(CCCN(Cc3ccc(F)c(Cl)c3)C2)CN1CCCO", "stereo": "centres undefined", "SAM-II": "N", "PreQ1": "N", "TPP": "N"}
{"compound": "CCOC(=O)c1ccc2ncc(C(=O)OCC)c(Nc3ccc(C(=O)OC)cc3)c2c1", "SAM-II": "N", "PreQ1": "N", "TPP": "N"}

Once more, the final 2:

Compound	SAM-II	PreQ1	TPP
O=C1CCC2(CCCN(Cc3ccc(F)c(Cl)c3)C2)CN1CCCO (centres undefined)	N	N	N
CCOC(=O)c1ccc2ncc(C(=O)OCC)c(Nc3ccc(C(=O)OC)cc3)c2c1	N	N	N